The record followed here is publication PMC4166665.

Sequences of proteins named here, by UniProt entry; tags and fusion partners are left off. Residues count along the entry.
UniProt P08025, residues 49-118: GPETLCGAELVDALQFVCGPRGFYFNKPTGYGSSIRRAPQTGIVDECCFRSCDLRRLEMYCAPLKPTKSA
UniProt P15473, residues 28-292: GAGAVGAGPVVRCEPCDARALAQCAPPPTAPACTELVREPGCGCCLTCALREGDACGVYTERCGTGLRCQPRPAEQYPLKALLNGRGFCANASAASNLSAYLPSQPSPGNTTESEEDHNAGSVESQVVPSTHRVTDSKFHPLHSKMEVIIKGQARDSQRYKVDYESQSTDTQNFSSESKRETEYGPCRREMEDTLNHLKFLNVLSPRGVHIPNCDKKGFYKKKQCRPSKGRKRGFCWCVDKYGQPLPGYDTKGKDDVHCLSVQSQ
UniProt P24594, residues 20-271: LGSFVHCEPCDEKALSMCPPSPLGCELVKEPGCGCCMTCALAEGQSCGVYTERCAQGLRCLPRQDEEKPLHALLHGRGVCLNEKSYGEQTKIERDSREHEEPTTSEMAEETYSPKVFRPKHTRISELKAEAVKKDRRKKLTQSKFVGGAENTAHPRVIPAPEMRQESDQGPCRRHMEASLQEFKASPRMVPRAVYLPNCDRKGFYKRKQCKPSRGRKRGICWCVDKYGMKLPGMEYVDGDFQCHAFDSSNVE

In the assay the target is Insulin-like Growth Factor 1 (rat (endogenous in plasma)) (UniProt P08025). Nature of the assay: co-IP; 900 µg of albumin- and IgG-depleted rat plasma (control and 14-day hindlimb-unloaded rats), pre-cleared with protein G magnetic beads; IGF-1 antibody overnight, protein G magnetic beads 1h30 at room temperature, 4 washes with PBS 0.05% Tween; western blot for IGFBPs. For orientation: A western blot detects proteins with antibodies after separation by electrophoresis.

Results are given in words; binding and its absence hold for the method and conditions named. Binding seen in cells or lysates may run through a third protein. Some binding calls cover weakened binding; strength is not graded here.

Regarding IGFBP3 (from UniProt P15473 28-292), the binding entry is “binds”.

IGFBP5 (from UniProt P24594 20-271): the binding entry is listed as “binds”.
